Test results taken from patent US20130189283A1.
Residue numbers refer to the chain shown, from its start. These are yes or no findings as the source states them, for the method shown. Some entries that bind do so weakly or less than the wild type.

B1: Antibody 10186 (antibody, V domains shown)
VH: QVQLQESGPGLVKPSQTLSLTCTVSGGSISSGDYAWSWIRQLPGKGLEWIGHIHNSGTTYYNPSLKSRVTISVDTSKKQFSLRLSSVTAADTAVYYCARDRGGDYYAGMDVWGQGTTVTVSS
VL: EIVLTQSPGTLSLSPGERATLSCRASQGISRSYLAWYQQKPGQAPSLLIYGASSRATGIPDRFSGSGSGTDFTLTISRLEPEDFAVYYCQQAGSSPWTFGQGTKVEIK
B2: Antibody 16449 (antibody, V domains shown)
VH: B1 VH with A35F, A107Y
VL: B1 VL with A92F
B3: Antibody 1869 (antibody, V domains shown)
VH: B1 VH with A35F, D104A, A107Y
VL: B1 VL with A92F
B4: Antibody 1870 (antibody, V domains shown)
VH: B1 VH with A35F, Y105A, A107Y
VL: B1 VL with A92F
B5: Antibody 1910 (antibody, V domains shown)
VH: B1 VH with A35F, A107Y
VL: B1 VL
B6: Antibody 1920 (antibody, V domains shown)
VH: B1 VH with A35F
VL: B1 VL with A92F
B7: Antibody 1922 (antibody, V domains shown)
VH: B1 VH with A35F, Y105A, Y106A
VL: B1 VL with A92F
B8: Antibody 16613 (antibody, V domains shown)
VH: B1 VH with A35F, A107Y
VL: B1 VL with Y33A, A92F
B9: Antibody 1913 (antibody, V domains shown)
VH: B1 VH with A107Y
VL: B1 VL with A92F

Columns and labels:
[1] = target: Soluble human TR2 (huTR2 long-huFc (IgG1)) (human); assay: BIAcore solution equilibrium assay; up to 50 µM antibody with 10 nM TR2 (FIG. 20A-B)
[2] = target: Soluble human TR2 (huTR2 long-huFc (IgG1)) (human); assay: BIAcore solution equilibrium assay; 7 pM to 10 nM antibody with 1 nM TR2, free TR2 read on immobilised 16449
[3] = target: Soluble human TR2 (huTR2 long-huFc (IgG1)) (human); assay: BIAcore solution equilibrium assay: antibody incubated with TR2, free TR2 read on immobilised antibody 16449

| Binder | binding [2] | binding [3] | other results |
| --- | --- | --- | --- |
| B1 |  |  | binding [1]: binds |
| B2 | binds |  |  |
| B3 | binds |  |  |
| B4 | binds |  |  |
| B5 |  | no binding (tested: 50 nM antibody with 10 nM TR2) |  |
| B6 |  | no binding (tested: 50 nM antibody with 10 nM TR2) |  |
| B7 |  | no binding (tested: 50 nM antibody with 10 nM TR2) |  |
| B8 |  | no binding (tested: 50 nM antibody with 10 nM TR2) |  |
| B9 |  | no binding (tested: 50 nM antibody with 10 nM TR2) |  |
